From the supplement of paper PMC10849652
Some of the results follow. Residues, ends and D or L forms follow the SMILES beside them. *: point of attachment. Cbz = O=C(OCc1ccccc1)*

By UniProt entry, the sequences of proteins in these tests, tags left out. Where a name states a change or a piece, a line headed by the entry shows the natural chain unless it says otherwise.
UniProt Q5SVZ6: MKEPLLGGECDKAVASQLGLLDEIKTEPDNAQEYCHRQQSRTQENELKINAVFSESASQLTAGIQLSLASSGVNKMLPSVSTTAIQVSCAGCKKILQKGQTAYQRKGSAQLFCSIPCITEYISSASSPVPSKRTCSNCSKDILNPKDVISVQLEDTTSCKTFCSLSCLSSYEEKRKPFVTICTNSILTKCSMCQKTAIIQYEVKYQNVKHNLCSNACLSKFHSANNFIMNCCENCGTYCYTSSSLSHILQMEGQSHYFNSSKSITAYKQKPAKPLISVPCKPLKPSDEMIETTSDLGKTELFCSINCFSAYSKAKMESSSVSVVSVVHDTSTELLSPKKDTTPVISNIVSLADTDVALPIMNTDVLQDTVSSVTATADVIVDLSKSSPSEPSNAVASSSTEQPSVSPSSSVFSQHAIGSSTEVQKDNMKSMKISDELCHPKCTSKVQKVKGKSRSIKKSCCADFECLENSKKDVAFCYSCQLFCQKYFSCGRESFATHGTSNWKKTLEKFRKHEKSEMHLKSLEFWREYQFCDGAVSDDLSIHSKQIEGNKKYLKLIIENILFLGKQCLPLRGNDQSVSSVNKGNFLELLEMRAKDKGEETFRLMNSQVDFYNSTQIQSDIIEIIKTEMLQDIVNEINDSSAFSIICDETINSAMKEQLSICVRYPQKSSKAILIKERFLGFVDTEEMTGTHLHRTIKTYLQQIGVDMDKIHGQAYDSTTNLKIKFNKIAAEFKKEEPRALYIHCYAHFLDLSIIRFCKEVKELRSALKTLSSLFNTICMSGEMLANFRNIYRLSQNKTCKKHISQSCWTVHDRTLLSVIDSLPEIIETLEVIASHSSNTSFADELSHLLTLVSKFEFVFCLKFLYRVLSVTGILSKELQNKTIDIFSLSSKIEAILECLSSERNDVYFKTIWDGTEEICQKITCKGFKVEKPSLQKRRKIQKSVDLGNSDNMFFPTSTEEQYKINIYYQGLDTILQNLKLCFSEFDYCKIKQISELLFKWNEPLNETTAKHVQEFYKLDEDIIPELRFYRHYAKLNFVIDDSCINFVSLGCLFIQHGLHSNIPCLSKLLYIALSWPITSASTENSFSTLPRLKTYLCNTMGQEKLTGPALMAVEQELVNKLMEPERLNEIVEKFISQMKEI
UniProt Q9H8U3: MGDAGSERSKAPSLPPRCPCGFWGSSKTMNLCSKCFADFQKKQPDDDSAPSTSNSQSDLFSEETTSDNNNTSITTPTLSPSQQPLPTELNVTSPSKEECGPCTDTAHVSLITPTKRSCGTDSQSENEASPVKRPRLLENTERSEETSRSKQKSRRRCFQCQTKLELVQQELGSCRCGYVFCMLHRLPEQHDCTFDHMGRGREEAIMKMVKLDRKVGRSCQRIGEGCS
UniProt Q9BYJ9: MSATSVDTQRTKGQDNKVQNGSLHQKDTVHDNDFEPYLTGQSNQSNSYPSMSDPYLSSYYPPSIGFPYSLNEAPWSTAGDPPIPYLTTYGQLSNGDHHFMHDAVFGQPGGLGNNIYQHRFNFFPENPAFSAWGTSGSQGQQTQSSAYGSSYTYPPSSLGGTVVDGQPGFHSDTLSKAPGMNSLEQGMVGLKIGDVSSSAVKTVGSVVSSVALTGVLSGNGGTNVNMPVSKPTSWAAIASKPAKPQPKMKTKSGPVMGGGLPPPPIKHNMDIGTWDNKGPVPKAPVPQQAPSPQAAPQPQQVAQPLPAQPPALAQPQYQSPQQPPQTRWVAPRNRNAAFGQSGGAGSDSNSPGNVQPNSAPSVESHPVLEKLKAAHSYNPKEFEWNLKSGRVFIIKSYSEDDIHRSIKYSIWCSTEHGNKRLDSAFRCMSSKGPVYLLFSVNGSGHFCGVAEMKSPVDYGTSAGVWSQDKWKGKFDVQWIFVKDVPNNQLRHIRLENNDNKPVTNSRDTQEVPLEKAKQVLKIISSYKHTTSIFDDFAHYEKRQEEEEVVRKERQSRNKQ
UniProt Q8IX07: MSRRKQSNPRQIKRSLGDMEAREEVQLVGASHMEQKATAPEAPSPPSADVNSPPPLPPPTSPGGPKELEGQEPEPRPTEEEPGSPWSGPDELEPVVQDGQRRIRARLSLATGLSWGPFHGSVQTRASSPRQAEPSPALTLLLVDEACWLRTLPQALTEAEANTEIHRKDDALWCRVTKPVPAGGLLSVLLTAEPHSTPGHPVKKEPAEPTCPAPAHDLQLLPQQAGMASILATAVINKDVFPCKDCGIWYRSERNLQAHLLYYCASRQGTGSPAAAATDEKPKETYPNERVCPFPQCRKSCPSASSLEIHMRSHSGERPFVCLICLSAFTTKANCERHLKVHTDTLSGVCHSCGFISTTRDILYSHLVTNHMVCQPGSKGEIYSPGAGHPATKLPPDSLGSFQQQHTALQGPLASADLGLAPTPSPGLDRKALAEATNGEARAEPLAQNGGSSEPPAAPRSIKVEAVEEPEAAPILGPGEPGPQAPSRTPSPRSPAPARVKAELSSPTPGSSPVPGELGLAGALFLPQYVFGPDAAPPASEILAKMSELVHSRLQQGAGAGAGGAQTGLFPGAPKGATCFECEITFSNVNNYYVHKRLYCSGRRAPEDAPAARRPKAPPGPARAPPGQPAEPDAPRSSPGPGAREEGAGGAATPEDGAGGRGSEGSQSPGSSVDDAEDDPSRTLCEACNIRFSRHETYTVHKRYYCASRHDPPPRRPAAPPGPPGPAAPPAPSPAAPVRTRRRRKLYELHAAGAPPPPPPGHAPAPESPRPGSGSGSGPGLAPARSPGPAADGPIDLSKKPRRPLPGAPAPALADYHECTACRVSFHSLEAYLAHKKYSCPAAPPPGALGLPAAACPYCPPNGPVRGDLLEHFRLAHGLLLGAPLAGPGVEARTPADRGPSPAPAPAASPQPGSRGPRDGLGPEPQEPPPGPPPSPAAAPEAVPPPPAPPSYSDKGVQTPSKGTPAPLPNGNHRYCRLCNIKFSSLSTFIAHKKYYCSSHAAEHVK
UniProt Q8IUH5: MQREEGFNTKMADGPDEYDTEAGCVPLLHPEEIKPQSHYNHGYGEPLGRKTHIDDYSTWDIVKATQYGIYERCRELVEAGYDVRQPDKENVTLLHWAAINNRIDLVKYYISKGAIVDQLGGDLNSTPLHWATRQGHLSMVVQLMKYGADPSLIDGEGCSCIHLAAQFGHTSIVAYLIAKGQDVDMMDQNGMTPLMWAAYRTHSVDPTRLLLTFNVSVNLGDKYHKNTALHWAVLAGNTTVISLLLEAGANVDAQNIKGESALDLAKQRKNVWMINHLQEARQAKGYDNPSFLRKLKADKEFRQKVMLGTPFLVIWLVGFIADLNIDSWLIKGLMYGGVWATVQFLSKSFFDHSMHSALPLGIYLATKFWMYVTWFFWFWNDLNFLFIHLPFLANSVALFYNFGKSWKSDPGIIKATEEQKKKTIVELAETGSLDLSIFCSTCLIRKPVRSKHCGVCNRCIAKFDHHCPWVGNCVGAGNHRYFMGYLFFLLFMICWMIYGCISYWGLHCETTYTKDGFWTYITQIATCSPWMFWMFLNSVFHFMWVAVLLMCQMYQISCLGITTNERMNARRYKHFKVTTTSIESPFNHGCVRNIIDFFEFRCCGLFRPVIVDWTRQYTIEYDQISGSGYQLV
UniProt O95070: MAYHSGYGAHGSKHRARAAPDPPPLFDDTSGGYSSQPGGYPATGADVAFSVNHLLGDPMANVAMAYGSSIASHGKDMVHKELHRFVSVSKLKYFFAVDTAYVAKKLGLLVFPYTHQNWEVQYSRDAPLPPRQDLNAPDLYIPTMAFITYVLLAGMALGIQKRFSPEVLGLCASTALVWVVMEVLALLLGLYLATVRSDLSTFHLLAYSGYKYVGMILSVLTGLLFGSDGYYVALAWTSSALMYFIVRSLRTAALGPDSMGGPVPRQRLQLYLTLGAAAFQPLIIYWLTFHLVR
UniProt Q01831: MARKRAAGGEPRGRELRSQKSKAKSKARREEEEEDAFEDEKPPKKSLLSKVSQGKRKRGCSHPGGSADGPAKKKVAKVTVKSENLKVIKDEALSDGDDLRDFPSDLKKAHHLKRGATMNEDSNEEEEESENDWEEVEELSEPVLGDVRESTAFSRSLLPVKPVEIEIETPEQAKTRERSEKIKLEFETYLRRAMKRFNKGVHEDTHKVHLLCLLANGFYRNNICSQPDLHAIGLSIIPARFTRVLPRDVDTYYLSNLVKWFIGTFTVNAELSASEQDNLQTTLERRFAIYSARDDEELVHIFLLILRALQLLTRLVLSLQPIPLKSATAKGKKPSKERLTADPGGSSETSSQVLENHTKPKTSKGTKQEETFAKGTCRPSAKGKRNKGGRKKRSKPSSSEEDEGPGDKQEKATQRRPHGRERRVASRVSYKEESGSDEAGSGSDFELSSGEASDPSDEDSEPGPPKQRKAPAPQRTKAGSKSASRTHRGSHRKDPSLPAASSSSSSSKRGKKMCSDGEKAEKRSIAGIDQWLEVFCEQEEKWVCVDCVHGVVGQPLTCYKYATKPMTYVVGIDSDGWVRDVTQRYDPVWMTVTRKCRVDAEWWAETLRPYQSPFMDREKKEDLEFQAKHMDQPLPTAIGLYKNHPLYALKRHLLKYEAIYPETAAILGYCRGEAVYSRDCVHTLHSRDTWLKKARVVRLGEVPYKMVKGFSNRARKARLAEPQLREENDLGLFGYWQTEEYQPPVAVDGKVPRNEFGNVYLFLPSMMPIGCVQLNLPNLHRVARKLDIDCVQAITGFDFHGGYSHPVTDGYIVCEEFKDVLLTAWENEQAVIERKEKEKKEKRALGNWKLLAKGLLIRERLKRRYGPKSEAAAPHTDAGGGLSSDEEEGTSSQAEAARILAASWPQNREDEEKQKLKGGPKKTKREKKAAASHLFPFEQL
UniProt P18887, whole entry, looked up: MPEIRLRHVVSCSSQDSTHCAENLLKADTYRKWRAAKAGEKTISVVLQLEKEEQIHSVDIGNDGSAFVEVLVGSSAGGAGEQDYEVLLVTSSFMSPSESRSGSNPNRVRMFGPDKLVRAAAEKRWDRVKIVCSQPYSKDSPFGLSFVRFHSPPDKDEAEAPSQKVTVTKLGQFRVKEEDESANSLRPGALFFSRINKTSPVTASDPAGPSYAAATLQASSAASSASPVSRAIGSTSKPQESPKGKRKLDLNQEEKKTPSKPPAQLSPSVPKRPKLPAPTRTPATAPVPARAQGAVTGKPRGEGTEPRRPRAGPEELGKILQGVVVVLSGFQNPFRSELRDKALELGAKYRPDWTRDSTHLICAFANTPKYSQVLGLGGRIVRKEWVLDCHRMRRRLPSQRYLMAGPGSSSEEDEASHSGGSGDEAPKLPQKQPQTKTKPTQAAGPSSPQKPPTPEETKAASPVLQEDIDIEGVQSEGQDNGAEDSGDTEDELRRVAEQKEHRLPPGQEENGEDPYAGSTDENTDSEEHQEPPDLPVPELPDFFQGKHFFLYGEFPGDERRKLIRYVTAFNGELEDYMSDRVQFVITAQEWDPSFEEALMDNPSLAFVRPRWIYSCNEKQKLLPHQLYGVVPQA
UniProt P37275: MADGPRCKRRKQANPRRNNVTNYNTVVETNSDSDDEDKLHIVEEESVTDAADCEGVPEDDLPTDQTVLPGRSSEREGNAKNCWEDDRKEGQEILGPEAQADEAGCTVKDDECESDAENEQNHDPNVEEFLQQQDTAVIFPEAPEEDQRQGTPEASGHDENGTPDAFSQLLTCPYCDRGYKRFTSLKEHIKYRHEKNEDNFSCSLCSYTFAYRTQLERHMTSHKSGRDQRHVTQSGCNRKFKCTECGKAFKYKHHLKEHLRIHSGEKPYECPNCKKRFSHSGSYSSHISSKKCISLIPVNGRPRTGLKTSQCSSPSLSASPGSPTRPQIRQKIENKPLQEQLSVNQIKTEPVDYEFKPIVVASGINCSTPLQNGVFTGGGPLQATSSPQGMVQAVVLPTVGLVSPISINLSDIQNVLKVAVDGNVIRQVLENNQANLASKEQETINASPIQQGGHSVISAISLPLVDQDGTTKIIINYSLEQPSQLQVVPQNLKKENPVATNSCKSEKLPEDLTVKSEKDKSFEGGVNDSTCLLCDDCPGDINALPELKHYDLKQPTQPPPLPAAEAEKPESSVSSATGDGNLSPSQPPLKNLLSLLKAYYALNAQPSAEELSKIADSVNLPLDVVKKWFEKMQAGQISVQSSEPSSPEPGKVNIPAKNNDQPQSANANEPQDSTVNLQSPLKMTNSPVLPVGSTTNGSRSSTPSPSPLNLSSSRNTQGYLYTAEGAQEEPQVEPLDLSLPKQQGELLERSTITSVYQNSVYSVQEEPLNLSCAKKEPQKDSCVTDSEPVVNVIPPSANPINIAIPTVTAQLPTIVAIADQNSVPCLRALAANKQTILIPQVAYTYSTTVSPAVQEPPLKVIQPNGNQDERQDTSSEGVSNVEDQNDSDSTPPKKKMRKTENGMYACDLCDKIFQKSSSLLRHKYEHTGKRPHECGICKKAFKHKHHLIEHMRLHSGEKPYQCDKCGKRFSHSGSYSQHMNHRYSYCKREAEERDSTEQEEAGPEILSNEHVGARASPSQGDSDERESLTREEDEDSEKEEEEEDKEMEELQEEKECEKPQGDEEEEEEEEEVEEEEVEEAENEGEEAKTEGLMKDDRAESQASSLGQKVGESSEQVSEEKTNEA

Columns and labels:
Test in all cases: log2 fold change, soluble protein after heating vs DMSO (PISA); higher = thermal stabilisation; K562 cells, 10 uM, 30 min; active = over 0.2 and 3.5 SD of the protein, either way, in both replicates (recomputed)
erlotinib = compound: C#Cc1cccc(Nc2ncnc3cc(OCCOC)c(OCCOC)cc23)c1 [erlotinib]
Summary of the method: (§1)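 Quantification of soluble protein used TMTpro 16plex LC-MS/MS, with channel sums equalised. Samples were the supernatant after 21,000xg for 90 min of pooled aliquots from K562 cells (2×10^6 cells/mL) treated with 10 μM compound for 30 min, heated for 3 min over 48°C-58°C, and extracted in PBS with 0.5% NP-40 at 4°C. Values, from duplicates, describe thermal stability against control samples on a log2 fold-change scale.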

[1] = compound: C/C(=N\NC(=O)C1=CC(=CC=C1)S(=O)(=O)N2CCOCC2)/C3=C(C=CC(=C3)Cl)O
Summary of the method: as §1

[2] = compound: C1=CC(=C(C=C1Cl)C2=NC3=NC=CN=C3C(=N2)NC4=CC=NC=C4)F
Summary of the method: as §1

[3] = compound: C1=CC(=CC=C1C2=NC3=C(N2)C=C(C=C3)C(=O)N)OC4=CC=C(C=C4)Cl
Summary of the method: as §1

[4] = compound: C1=CC2=C(C=CC(=C2)/C=C\3/C(=O)NC(=NCC4=CC=CS4)S3)N=C1
Summary of the method: as §1

[5] = compound: C1=CC2=NC=CN=C2C=C1/C=C/3\C(=O)NC(=O)S3
Summary of the method: as §1

[6] = compound: C1=CC=C(C=C1)C2=NC(=C(N2)C3=CC=NC=C3)C4=CC(=C(C=C4)Cl)O
Summary of the method: as §1

[7] = compound: C1=CC=C2C(=C1)C3=NNC4=CC=CC(=C43)C2=O
Summary of the method: as §1

[8] = compound: C1CCN(C1)C(=O)NC2=CC=CC(=C2)NC3=NC=C(C(=N3)NCCC4=CN=CN4)Br
Summary of the method: as §1

[9] = compound: C1CN(CCC1(CC2=CC=C(C=C2)Cl)N)C3=NC=NC4=C3C=CN4
Summary of the method: as §1

IRAK-1-4 Inhibitor I = compound: C1COCCN1CCN2C3=CC=CC=C3N=C2NC(=O)C4=CC(=CC=C4)[N+](=O)[O-] [IRAK-1-4 Inhibitor I]
Summary of the method: as §1

ibrutinib = compound: C=CC(=O)N1CCC[C@@H](n2nc(-c3ccc(Oc4ccccc4)cc3)c3c(N)ncnc32)C1 [ibrutinib]
Summary of the method: as §1

[10] = compound: CC(=O)c1cnc2ccc(-c3cc(Cl)c(O)c(Cl)c3)nc2c1N[C@H]1CC[C@H](CN(C)C)CC1
Summary of the method: as §1

ralimetinib = compound: CC(C)(C)Cn1c(N)nc2ccc(-c3[nH]c(C(C)(C)C)nc3-c3ccc(F)cc3)nc21 [ralimetinib]
Summary of the method: as §1

[11] = compound: CC(C)(O)CC(=O)NCCn1ccc2ncnc(Nc3ccc(Oc4cccc(C(F)(F)F)c4)c(Cl)c3)c21
Summary of the method: as §1

[12] = compound: CC(C)C1=C2N=C(C=C(N2N=C1)NCC3=CC=CC=C3)NCCCCCCN
Summary of the method: as §1

[13] = compound: CC(C)C[C@@H](C=O)NC(=O)[C@H](CC(C)C)NC(=O)[C@H](CC(C)C)NC(=O)OCc1ccccc1
Summary of the method: as §1

pinometostat = compound: CC(C)N(C[C@H]1O[C@@H](n2cnc3c(N)ncnc32)[C@H](O)[C@@H]1O)[C@H]1C[C@@H](CCc2nc3cc(C(C)(C)C)ccc3[nH]2)C1 [pinometostat]
Summary of the method: as §1

[14] = compound: CC1=C(C2=C(C=C1)C(=O)C3=CC=CC=C3N2CCCN)C
Summary of the method: as §1

[15] = compound: CC1=C(C(CC(=O)N1)C2=CC=C(C=C2)C(F)(F)F)C(=O)NC3=C(C=C4C(=C3)C=NN4)F
Summary of the method: as §1

Measured: log2 fold change

ZMYM1 (UniProt Q5SVZ6)
inactive: erlotinib 0.14 | [1] -0.174 | [2] -0.057 | [3] -0.135 | [4] 0.113 | [5] 0.005 | [6] -0.101 | [7] 0.001 | [8] -0.136 | [9] 0.052 | IRAK-1-4 Inhibitor I 0.006 | ibrutinib 0.066 | [10] 0.055 | ralimetinib 0.078 | [11] -0.01 | [12] 0.09 | [13] 0.006 | pinometostat 0.001 | [14] 0.024

ZFAND3 (UniProt Q9H8U3)
inactive: erlotinib -0.021 | [1] 0.041 | [2] -0.064 | [3] 0.046 | [4] 0 | [5] -0.006 | [6] -0.037 | [7] -0.027 | [8] 0.03 | [9] 0.042 | ibrutinib -0.037 | [10] 0.025 | ralimetinib -0.036 | [11] 0 | [12] 0.071 | [13] 0.104 | [15] 0 | [14] -0.146

YTHDF1 (UniProt Q9BYJ9)
inactive: erlotinib 0.031 | [2] -0.671 | [3] 0.02 | [5] 0.078 | IRAK-1-4 Inhibitor I -0.219 | ibrutinib -0.09 | [11] 0 | [12] -0.122 | pinometostat -0.034

ZFPM1 (UniProt Q8IX07)
inactive: erlotinib 0.172 | [2] -0.045 | [3] 0.096 | [5] 0.17 | [6] 0.034 | [8] -0.156 | [9] 0.177 | ibrutinib -0.437 | ralimetinib 0.23 | [11] 0 | [12] 0.039 | [13] -0.16 | [15] -0.17 | [14] 0.051

ZDHHC17 (UniProt Q8IUH5)
inactive: erlotinib 0.091 | [1] -0.004 | [2] -0.006 | [3] -0.046 | [4] 0.064 | [5] 0.11 | [6] 0.002 | [7] -0.021 | [8] 0.011 | [9] 0.022 | IRAK-1-4 Inhibitor I -0.008 | ibrutinib -0.029 | [10] -0.007 | ralimetinib -0.099 | [11] 0.062 | [12] -0.061 | [13] -0.057 | pinometostat 0.053 | [14] 0.037

YIF1A (UniProt O95070)
inactive: erlotinib -0.143 | [1] -0.048 | [3] -0.014 | [4] -0.034 | [5] 0.039 | [6] 0.118 | [7] -0.008 | [8] 0 | [9] 0.117 | IRAK-1-4 Inhibitor I 0.027 | ibrutinib 0.092 | [10] -0.044 | ralimetinib -0.094 | [12] 0.033 | [13] -0.049 | pinometostat -0.064 | [15] -0.024 | [14] 0.082

XPC (UniProt Q01831)
inactive: erlotinib -0.014 | [1] 0.114 | [2] -0.072 | [3] 0.037 | [4] -0.088 | [6] -0.628 | [7] -0.028 | IRAK-1-4 Inhibitor I 0.023 | [10] -0.135 | ralimetinib -0.424 | [11] -0.152 | [12] 0.002 | [13] 0.338 | pinometostat 0.029

ZFYVE9 (UniProt O95405)
inactive: erlotinib 0.08 | [2] 0.044 | [3] 0.029 | [5] -0.079 | [6] 0.07 | [8] 0.073 | [9] -0.006 | IRAK-1-4 Inhibitor I 0.034 | ibrutinib -0.105 | ralimetinib -0.008 | [11] -0.019 | [12] -0.389 | [13] -0.036 | pinometostat -0.141 | [15] -0.064 | [14] 0.073

XRCC1 (UniProt P18887)
inactive: erlotinib 0.036 | [1] -0.392 | [2] 0.04 | [3] 0.046 | [4] 0.304 | [6] -0.035 | [7] 0.042 | [8] 0.043 | [9] 0.117 | IRAK-1-4 Inhibitor I 0.13 | [10] 0.027 | ralimetinib -0.115 | [11] -0.368 | [12] -0.066 | [13] 0.432 | pinometostat 0.41 | [14] -0.047

ZEB1 isoform 2 (UniProt P37275)
inactive: erlotinib -0.057 | [1] 0.083 | [3] 0.164 | [4] -0.016 | [5] -0.022 | [7] -0.014 | [8] 0.263 | [9] 0.117 | IRAK-1-4 Inhibitor I 0.157 | ibrutinib 0.036 | [10] 0.053 | [12] 0.007 | pinometostat -0.029 | [15] -0.11 | [14] 0.011
